# Laboratory results from PubChem BioAssay AID445 (National Center for Advancing Translational Sciences (NCATS), 2006).
# Some of the results follow. Shown are side measurements of this screen, not its main read-out; they come without a call. The list favours compounds with an active or inconclusive main result. The note in brackets gives the kind of curve behind each potency; many fits are weak.
# Experiment: IkB Signaling
# Conditions: ABC-DLBCL IkBa-CBG/CBR dual luciferase ratio (green luciferase fused to IkBa over red control in OCI-Ly3 lymphoma cells), 4 h
# In short: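 In this assay, an IκBα–CBG68 fusion accumulates when IKK-driven degradation is blocked; native CBR normalizes for cell number. OCI-Ly3 cells were treated 4 h with compound and doxycycline, then green and red light read after Chroma-Glo addition.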
# [1] = measured here: control luc red channel unless noted
# [2] = measured here: IkB-luc green channel
# [3] = measured here: control luc red channel
smiles,measurement,setting,value
Cc1sc2ncnc(SCc3ccco3)c2c1C,AC50,[1],"31.6 µM [falling, partial curve]"
COc1cccc(NC(=O)c2sc3nc(C)c(C(=O)Nc4ccc(C)cc4C)c(-c4sccc4C)c3c2N)c1,AC50,[1],"2 µM [falling, full curve]"
CC(C)c1ccc2oc(-c3cc(NC(=O)c4cccs4)ccc3Cl)nc2c1,AC50,[1],"3.98 µM [falling, partial curve]"
Cc1cc(C)c(Cn2c(CCNC(=O)c3ccco3)nc3ccccc32)c(C)c1,AC50,[1],"25.1 µM [falling, partial curve]"
Cc1ccc([C@H]2Nc3ccc(S(=O)(=O)Nc4cccc(Cl)c4C)cc3[C@H]3C=CC[C@H]32)cc1,AC50,[1],"12.6 µM [falling, partial curve]"
Cc1ccc(Nc2nnc(-c3ccc(C)c(S(=O)(=O)N4CCN(C)CC4)c3)c3ccccc23)c(C)c1,AC50,[1],"15.8 µM [falling, partial curve]"
CCOc1ccc2nc(N3CCC(C(=O)N4CCN(c5ccccn5)CC4)CC3)sc2c1,AC50,[1],"7.94 µM [falling, partial curve]"
CCCC(c1nnnn1Cc1ccc(OC)cc1)N1CCN(c2ccccc2OC)CC1 (centres undefined),AC50,[1],"31.6 µM [falling, single point]"
COC(=O)c1cc2oc3ccccc3c2n1Cc1nc(-c2cccc(Cl)c2)oc1C,AC50,[1],"2 µM [rising, partial curve]"
Cc1ccc(-n2nc3c(N4CCC(C(=O)N5CCC(C)CC5)CC4)nnc(C)c3c2C)cc1,AC50,[1],"5.01 µM [falling, single point]"
COc1cc(OC)cc(C(=O)Nc2ccc(S(=O)(=O)N3CCCCC3c3cccnc3)cc2)c1 (centres undefined),AC50,[1],"31.6 µM [falling, partial curve]"
O=C(Nc1cccc(Cl)c1Cl)c1cc(S(=O)(=O)N2CCC3(CC2)OCCO3)ccc1F,AC50,[1],"31.6 µM [falling, partial curve, poor fit]"
N#CC1=C(N)N(c2ccccc2)C2=C(C(=O)CCC2)C1c1cccs1 (centres undefined),AC50,[1],"1 µM [falling, full curve]"
COc1ccc(-c2noc(CN3CCC(Cc4ccccc4)CC3)n2)cc1,AC50,[1],"15.8 µM [falling, partial curve]"
CCOc1ccccc1N1CC(c2nc3ccccc3n2CCOc2ccc(OC)cc2)CC1=O (centres undefined),AC50,[1],"25.1 µM [falling, single point]"
CC(=O)N(Cc1cccnc1)c1nc2c(C)cc(C)cc2s1,AC50,[1],"10 µM [rising, partial curve]"
O=C(O)CCc1ccc(-c2ccc(Br)cc2)o1,AC50,[2],"39.8 µM [rising, single point]"
same,AC50,[3],"20 µM [falling, partial curve]"
COc1ccc(CNC(=O)c2cc(-c3cccs3)nc3ccccc23)c(OC)c1,AC50,[1],"6.31 µM [falling, full curve]"
c1ccc2c(c1)nc(N1CCOCC1)c1nnnn12,AC50,[1],"1 µM [falling, full curve]"
Cc1ccc(-c2nc3ccccn3c2Nc2c(C)cccc2C)o1,AC50,[1],"20 µM [falling, partial curve]"
Cc1nnc(N2CCCC(C(=O)Nc3ccccc3C(F)(F)F)C2)c2nn(-c3ccccc3)c(C)c12 (centres undefined),AC50,[1],"12.6 µM [falling, partial curve]"
CCOc1ccccc1-c1nc(-c2cc3ccc(C)cc3[nH]c2=O)no1,AC50,[1],"12.6 µM [falling, partial curve]"
CC(C)Cn1c(=O)c2sccc2n2c(CCCC(=O)NCC(C)c3ccccc3)nnc12 (centres undefined),AC50,[1],"20 µM [falling, partial curve]"
COc1ccc(OC)c(NC(=O)Cc2c(C(=O)O)[nH]c3ccc(Cl)cc23)c1,AC50,[1],"12.6 µM [falling, partial curve]"
Cc1ccc(C)c(N2CCN(C(=O)c3cc4c(=O)n(Cc5cccnc5)ccc4nc3C)CC2)c1,AC50,[1],"25.1 µM [falling, single point]"
O=C(c1ccc(Cl)cc1)N1CCCCC1CCN1CCOCC1 (centres undefined),AC50,[1],"3.98 µM [rising, partial curve]"
Cc1cccc(C(=O)Nc2c(-c3ccc(F)cc3)nc3ccccn23)c1,AC50,[1],"15.8 µM [falling, partial curve]"
CCn1c(=O)c2cc(C(=O)Nc3cc(C)c(Cl)cc3OC)sc2c2ccccc21,AC50,[1],"0.794 µM [falling, full curve]"
CCOc1ccccc1C1CC(=O)NC(C)=C1C(=O)OC1CCCCCC1 (centres undefined),AC50,[1],"25.1 µM [falling, single point]"
COc1ccc(NC(=O)C2CCCN(S(=O)(=O)c3cn(C)cn3)C2)cc1Cl (centres undefined),AC50,[1],"7.94 µM [falling, partial curve]"
Cc1cccc(Oc2nc3ccccn3c(=O)c2/C=C(\C#N)c2nc3ccccc3s2)c1C,AC50,[1],"25.1 µM [falling, single point]"
COc1ccc(CCNC(=O)c2ccc3c(c2)CCN3S(=O)(=O)c2ccc(Cl)cc2)cc1,AC50,[1],"31.6 µM [falling, single point]"
Cc1cc(C)c(S(=O)(=O)Nc2cc(-c3cn4ccccc4n3)ccc2C)cc1C,AC50,[1],"25.1 µM [falling, single point]"
CCNC(=O)[C@@H]1O[C@@H](n2cnc3c(N)nc(NCCc4ccc(CCC(=O)O)cc4)nc32)[C@H](O)[C@@H]1O,AC50,[2],"0.0158 µM [rising, full curve, poor fit]"
same,AC50,[3],"0.0158 µM [rising, full curve]"
CC(=O)c1ccc(NC2=NS(=O)(=O)c3ccccc32)cc1,AC50,[1],"0.316 µM [rising, full curve, poor fit]"
O=C(CSc1nnc(Cc2cccs2)n1-c1ccccc1)NC1CCCCC1,AC50,[1],"15.8 µM [falling, partial curve]"
COc1c(Cl)cc(C(=O)Nc2cccc(-c3nc4ccccc4[nH]3)c2)cc1Cl,AC50,[1],"5.01 µM [falling, partial curve]"
Cc1ccc(Cl)cc1N1CCN(C(=O)CN2C(=O)COc3ccc(S(=O)(=O)N4CCOCC4)cc32)CC1,AC50,[1],"12.6 µM [falling, partial curve]"
O=C(NCc1ccc(F)cc1)c1ccc(CSc2nc3ccncc3n2Cc2ccc(F)cc2)cc1,AC50,[1],"25.1 µM [falling, single point]"
CCOC(=O)c1c(Nc2cccc(O)c2)nnc(-c2ccccc2)c1-c1ccccc1,AC50,[1],"12.6 µM [falling, partial curve]"
C=CCn1c(SCC(=O)Nc2sc(C)c(C)c2C(=O)OCC)nnc1-c1sc(N)nc1C,AC50,[1],"20 µM [falling, partial curve]"
CN1CCc2ccccc2Cc2[nH]c3ccccc3c2CC1,AC50,[1],"20 µM [falling, partial curve]"
Cc1ccc2[nH]c(=O)c(C(c3nnnn3C3CCCC3)N(Cc3cccnc3)Cc3ccco3)cc2c1 (centres undefined),AC50,[1],"25.1 µM [rising, partial curve] [measured here: IkB-luc green channel]"
CCOC(=O)C1=C(N)Oc2cc(O)ccc2C1c1cccnc1 (centres undefined),AC50,[1],"39.8 µM [falling, single point]"
COc1ccc(OC)c(NC(=O)c2ccc(-c3nc(CSc4ccccc4)c(C)o3)cc2)c1,AC50,[1],"7.94 µM [falling, partial curve]"
COc1ccccc1CCNC(=O)c1ccc(NC(=O)N2CC(C)Sc3ccccc32)cc1 (centres undefined),AC50,[1],"12.6 µM [falling, partial curve]"
Cc1ccc(Cn2c(Cc3ccccc3)nc3ccccc32)cc1,AC50,[1],"20 µM [falling, partial curve]"
O=C(c1ccc(Cl)c(Cl)c1)N(Cc1ccco1)c1ccc(O)cc1,AC50,[1],"15.8 µM [falling, partial curve]"
O=C(Nc1cccc(-c2nc3ccccc3[nH]2)c1)c1cccc(NC(=O)c2ccco2)c1,AC50,[2],"7.94 µM [rising, single point]"
same,AC50,[3],"0.631 µM [falling, full curve]"
CCOC(=O)c1ccccc1NC(=O)CCc1c(C)nc2c(c1C)c(=O)n(C)c(=O)n2C,AC50,[1],"39.8 µM [falling, single point]"
O=C(NC1CC(=O)N(c2ccc(F)cc2)C1)C(c1ccccc1)c1ccccc1 (centres undefined),AC50,[1],"39.8 µM [falling, single point]"
Cc1ccc(NC(=O)CSC(N)=O)cc1Cl,AC50,[1],"12.6 µM [falling, partial curve]"
COc1ccc(-c2noc(CSc3nnc(-c4ccncc4)n3-c3ccc(OC)cc3)n2)cc1,AC50,[1],"39.8 µM [falling, single point]"
COc1ccccc1NC(=O)C1=C(C)Nc2nc(SCc3ccccc3)nn2C1c1cccs1 (centres undefined),AC50,[1],"3.98 µM [falling, full curve]"
O=C(NCCc1ccc(Cl)cc1)c1ccc2c(c1)N(Cc1ccccc1)C(=O)CS2,AC50,[1],"12.6 µM [falling, partial curve]"
COc1ccc(N(CC(=O)Nc2ccc(OC)c(Cl)c2)S(=O)(=O)c2c(C)noc2C)cc1,AC50,[1],"10 µM [falling, partial curve]"
CC(=O)c1ccc(NC(=O)c2nn(C)c3c2COc2ccccc2-3)cc1,AC50,[1],"20 µM [falling, single point]"
Oc1c(C(Nc2ccccn2)c2ccccn2)ccc2cccnc12 (centres undefined),AC50,[1],"3.16 µM [falling, partial curve]"
CCOc1ccccc1NC(=O)N1CCC(N2CCN(Cc3ccccc3)C(=O)C2=O)CC1,AC50,[1],"0.00631 µM [rising, full curve]"
CC(Oc1ccccc1F)C(=O)N1CCC(c2nc3ccccc3o2)CC1 (centres undefined),AC50,[1],"25.1 µM [falling, single point]"
O=c1c(O)c(-c2cccs2)oc2ccccc12,AC50,[1],"25.1 µM [rising, partial curve] [measured here: IkB-luc green channel]"

# Reformatted: entries from further up.
smiles	measurement	setting	value
COC(=O)c1cc2oc3ccccc3c2n1Cc1nc(-c2cccc(Cl)c2)oc1C	AC50	[1]	2 µM [rising, partial curve]
Cc1ccc(-n2nc3c(N4CCC(C(=O)N5CCC(C)CC5)CC4)nnc(C)c3c2C)cc1	AC50	[1]	5.01 µM [falling, single point]
COc1cc(OC)cc(C(=O)Nc2ccc(S(=O)(=O)N3CCCCC3c3cccnc3)cc2)c1 (centres undefined)	AC50	[1]	31.6 µM [falling, partial curve]
CCOc1ccccc1N1CC(c2nc3ccccc3n2CCOc2ccc(OC)cc2)CC1=O (centres undefined)	AC50	[1]	25.1 µM [falling, single point]
O=C(O)CCc1ccc(-c2ccc(Br)cc2)o1	AC50	[2]	39.8 µM [rising, single point]
COc1ccc(CNC(=O)c2cc(-c3cccs3)nc3ccccc23)c(OC)c1	AC50	[1]	6.31 µM [falling, full curve]
c1ccc2c(c1)nc(N1CCOCC1)c1nnnn12	AC50	[1]	1 µM [falling, full curve]
CC(C)Cn1c(=O)c2sccc2n2c(CCCC(=O)NCC(C)c3ccccc3)nnc12 (centres undefined)	AC50	[1]	20 µM [falling, partial curve]
O=C(c1ccc(Cl)cc1)N1CCCCC1CCN1CCOCC1 (centres undefined)	AC50	[1]	3.98 µM [rising, partial curve]
CCn1c(=O)c2cc(C(=O)Nc3cc(C)c(Cl)cc3OC)sc2c2ccccc21	AC50	[1]	0.794 µM [falling, full curve]
CCNC(=O)[C@@H]1O[C@@H](n2cnc3c(N)nc(NCCc4ccc(CCC(=O)O)cc4)nc32)[C@H](O)[C@@H]1O	AC50	[2]	0.0158 µM [rising, full curve, poor fit]
Cc1ccc(Cn2c(Cc3ccccc3)nc3ccccc32)cc1	AC50	[1]	20 µM [falling, partial curve]
O=C(c1ccc(Cl)c(Cl)c1)N(Cc1ccco1)c1ccc(O)cc1	AC50	[1]	15.8 µM [falling, partial curve]
O=C(Nc1cccc(-c2nc3ccccc3[nH]2)c1)c1cccc(NC(=O)c2ccco2)c1	AC50	[2]	7.94 µM [rising, single point]
COc1ccc(N(CC(=O)Nc2ccc(OC)c(Cl)c2)S(=O)(=O)c2c(C)noc2C)cc1	AC50	[1]	10 µM [falling, partial curve]
CC(Oc1ccccc1F)C(=O)N1CCC(c2nc3ccccc3o2)CC1 (centres undefined)	AC50	[1]	25.1 µM [falling, single point]
O=c1c(O)c(-c2cccs2)oc2ccccc12	AC50	[1]	25.1 µM [rising, partial curve] [measured here: IkB-luc green channel]
